In the supplement of paper PMC10849652:
This is one part of the list.

Protein sequences, listed by entry. Tags and fused reporters are not part of them. Lines headed by an entry give the natural chain unless they say otherwise; changes in a name come on top.
UniProt Q9NUG6, whole entry, looked up: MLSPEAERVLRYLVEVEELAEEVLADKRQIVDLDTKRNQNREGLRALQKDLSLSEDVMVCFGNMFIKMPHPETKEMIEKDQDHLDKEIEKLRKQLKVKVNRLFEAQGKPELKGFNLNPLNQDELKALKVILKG
UniProt Q9BYG5: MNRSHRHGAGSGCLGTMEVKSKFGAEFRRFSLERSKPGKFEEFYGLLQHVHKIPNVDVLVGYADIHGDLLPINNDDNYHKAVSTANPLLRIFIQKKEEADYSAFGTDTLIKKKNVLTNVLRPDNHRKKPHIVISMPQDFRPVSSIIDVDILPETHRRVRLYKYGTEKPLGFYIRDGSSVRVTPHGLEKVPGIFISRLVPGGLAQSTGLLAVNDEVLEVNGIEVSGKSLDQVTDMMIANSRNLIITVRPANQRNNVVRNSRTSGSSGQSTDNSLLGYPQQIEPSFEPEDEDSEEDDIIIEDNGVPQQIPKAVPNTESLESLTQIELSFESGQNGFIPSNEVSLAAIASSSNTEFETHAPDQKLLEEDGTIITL
UniProt P05165: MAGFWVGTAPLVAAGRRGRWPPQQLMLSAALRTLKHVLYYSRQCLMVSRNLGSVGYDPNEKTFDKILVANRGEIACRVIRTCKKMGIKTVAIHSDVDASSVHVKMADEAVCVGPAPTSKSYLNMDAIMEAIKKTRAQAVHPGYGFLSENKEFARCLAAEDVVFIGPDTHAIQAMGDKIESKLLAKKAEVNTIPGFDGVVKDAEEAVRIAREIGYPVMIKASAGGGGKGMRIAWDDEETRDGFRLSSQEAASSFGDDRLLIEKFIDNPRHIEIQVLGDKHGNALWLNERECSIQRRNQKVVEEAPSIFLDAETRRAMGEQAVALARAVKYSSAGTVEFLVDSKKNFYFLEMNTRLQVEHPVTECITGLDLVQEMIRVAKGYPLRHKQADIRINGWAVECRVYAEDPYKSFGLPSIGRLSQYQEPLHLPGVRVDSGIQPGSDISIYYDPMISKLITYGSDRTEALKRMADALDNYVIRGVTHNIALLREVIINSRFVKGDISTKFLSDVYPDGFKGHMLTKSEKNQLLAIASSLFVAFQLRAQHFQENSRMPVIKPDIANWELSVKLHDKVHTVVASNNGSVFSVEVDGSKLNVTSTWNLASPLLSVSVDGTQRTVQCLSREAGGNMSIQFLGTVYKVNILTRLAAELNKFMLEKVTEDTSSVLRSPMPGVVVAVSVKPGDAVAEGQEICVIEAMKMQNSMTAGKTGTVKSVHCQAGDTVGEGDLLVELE
UniProt Q8NBP7, whole entry, looked up: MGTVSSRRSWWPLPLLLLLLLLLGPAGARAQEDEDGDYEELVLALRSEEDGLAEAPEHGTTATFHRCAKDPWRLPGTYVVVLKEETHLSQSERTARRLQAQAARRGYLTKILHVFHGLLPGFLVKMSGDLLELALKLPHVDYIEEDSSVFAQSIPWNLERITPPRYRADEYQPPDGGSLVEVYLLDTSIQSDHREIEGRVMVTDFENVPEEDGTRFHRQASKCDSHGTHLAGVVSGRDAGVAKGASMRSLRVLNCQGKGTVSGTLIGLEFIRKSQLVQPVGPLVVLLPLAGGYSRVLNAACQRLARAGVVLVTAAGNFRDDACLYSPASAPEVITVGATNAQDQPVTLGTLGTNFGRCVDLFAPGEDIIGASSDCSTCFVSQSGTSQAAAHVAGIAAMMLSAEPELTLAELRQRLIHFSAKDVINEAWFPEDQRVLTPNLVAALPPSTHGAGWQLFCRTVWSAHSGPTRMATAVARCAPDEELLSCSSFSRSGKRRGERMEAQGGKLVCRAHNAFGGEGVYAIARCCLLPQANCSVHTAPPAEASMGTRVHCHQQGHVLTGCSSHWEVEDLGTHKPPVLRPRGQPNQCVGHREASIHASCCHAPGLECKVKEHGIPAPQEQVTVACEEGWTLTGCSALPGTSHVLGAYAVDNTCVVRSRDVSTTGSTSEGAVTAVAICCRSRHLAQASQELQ
UniProt Q96GU1: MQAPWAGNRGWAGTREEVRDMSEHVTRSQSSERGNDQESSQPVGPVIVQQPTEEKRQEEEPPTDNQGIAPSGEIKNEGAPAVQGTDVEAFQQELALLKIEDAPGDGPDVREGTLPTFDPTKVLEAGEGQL
UniProt P22234: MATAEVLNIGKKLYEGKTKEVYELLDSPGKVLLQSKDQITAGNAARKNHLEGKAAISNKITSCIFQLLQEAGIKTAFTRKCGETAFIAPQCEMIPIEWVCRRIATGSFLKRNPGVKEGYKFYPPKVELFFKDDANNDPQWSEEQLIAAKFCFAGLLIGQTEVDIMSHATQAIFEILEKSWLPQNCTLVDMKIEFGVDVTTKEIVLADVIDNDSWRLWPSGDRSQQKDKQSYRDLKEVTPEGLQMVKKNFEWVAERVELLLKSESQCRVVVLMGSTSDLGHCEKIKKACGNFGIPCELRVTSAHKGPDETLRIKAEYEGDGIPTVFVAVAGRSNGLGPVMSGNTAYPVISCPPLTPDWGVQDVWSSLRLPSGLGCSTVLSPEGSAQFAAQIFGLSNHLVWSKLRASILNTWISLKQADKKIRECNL
UniProt P61457: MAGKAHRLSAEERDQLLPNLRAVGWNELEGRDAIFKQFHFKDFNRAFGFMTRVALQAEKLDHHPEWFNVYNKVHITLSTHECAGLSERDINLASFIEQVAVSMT
UniProt Q9BUH6, whole entry, looked up: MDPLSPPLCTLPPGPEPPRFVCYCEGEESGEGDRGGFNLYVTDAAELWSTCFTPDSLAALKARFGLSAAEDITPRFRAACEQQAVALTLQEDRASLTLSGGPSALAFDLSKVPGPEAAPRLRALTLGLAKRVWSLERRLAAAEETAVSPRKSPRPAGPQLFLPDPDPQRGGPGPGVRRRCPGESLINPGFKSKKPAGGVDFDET
UniProt Q7Z2X7: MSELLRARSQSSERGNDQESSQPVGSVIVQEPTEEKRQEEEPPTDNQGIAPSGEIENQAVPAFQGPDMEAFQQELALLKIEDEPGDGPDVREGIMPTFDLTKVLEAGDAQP
UniProt O43252: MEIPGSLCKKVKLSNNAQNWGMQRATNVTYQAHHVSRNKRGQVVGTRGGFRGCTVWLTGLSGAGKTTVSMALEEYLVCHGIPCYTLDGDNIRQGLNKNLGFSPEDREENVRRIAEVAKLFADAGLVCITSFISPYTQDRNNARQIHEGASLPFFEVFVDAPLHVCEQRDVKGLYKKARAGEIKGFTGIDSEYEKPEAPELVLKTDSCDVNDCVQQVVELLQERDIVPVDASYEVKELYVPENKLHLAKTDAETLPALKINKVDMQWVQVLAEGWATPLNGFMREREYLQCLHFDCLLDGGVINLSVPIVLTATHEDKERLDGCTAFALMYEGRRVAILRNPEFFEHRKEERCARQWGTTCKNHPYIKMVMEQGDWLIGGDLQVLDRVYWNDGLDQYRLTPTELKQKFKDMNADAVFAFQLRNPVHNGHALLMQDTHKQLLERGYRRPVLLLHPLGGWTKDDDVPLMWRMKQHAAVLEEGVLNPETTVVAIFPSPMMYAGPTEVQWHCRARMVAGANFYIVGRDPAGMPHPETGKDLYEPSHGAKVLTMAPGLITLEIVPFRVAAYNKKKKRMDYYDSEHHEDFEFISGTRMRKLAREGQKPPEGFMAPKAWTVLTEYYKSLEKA
UniProt P30086: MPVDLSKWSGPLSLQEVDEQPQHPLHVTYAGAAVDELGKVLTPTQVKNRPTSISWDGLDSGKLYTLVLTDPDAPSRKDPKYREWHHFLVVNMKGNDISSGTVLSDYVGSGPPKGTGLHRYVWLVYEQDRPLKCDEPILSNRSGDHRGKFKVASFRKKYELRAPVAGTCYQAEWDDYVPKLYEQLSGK
UniProt P50479: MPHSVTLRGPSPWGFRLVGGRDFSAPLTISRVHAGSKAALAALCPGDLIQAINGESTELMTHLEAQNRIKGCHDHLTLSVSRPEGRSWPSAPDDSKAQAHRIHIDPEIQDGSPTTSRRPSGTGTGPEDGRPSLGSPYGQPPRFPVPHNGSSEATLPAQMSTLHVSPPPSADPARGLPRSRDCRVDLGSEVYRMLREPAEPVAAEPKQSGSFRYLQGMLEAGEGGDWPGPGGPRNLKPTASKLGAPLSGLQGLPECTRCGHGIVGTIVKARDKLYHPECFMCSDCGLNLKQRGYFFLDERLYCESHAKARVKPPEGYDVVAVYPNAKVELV
UniProt Q9NWT1: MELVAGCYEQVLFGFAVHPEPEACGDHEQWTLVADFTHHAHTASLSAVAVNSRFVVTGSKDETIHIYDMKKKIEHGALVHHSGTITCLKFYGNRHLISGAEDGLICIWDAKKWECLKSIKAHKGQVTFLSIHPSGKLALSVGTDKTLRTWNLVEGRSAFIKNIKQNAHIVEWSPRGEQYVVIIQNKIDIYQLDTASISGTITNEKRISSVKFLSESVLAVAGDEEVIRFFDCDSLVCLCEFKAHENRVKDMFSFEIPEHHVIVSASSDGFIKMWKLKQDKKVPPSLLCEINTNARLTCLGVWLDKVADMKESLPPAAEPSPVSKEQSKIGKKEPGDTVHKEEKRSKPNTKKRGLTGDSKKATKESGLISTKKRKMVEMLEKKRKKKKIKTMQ
UniProt Q9BUL8: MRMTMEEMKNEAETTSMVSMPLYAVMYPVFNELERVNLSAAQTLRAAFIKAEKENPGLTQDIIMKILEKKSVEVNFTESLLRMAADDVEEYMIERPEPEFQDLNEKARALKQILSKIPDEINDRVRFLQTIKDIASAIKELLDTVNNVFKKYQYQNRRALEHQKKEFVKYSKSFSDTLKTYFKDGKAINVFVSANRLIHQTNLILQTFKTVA
UniProt Q8NBM8: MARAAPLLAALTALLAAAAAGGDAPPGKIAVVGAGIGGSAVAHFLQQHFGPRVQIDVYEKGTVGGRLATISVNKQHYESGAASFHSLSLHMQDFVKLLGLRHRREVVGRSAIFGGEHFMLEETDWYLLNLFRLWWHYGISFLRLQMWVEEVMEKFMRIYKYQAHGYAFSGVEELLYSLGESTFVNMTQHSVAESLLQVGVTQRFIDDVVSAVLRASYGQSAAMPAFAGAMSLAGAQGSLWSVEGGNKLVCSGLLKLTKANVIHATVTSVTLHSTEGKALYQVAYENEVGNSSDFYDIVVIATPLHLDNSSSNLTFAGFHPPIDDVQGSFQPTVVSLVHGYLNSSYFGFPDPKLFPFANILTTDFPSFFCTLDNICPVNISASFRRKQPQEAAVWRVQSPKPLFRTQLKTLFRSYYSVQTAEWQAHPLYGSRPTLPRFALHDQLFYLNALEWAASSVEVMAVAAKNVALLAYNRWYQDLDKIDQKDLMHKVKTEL
UniProt Q9HBI1: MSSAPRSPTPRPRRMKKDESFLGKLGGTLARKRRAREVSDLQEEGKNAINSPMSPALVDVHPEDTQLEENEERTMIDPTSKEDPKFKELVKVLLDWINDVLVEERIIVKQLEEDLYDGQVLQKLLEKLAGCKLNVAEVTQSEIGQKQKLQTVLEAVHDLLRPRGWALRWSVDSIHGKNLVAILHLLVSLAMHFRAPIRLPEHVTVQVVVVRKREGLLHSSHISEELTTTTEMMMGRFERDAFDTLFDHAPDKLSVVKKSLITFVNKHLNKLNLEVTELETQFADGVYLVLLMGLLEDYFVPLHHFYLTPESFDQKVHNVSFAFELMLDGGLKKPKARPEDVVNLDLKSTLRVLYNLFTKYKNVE
UniProt Q99497, whole entry, looked up: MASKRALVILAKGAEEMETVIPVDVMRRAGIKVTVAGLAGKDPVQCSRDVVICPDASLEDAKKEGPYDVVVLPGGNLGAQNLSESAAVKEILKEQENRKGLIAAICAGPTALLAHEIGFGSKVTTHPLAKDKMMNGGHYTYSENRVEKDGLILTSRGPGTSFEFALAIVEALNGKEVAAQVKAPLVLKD
UniProt Q14554: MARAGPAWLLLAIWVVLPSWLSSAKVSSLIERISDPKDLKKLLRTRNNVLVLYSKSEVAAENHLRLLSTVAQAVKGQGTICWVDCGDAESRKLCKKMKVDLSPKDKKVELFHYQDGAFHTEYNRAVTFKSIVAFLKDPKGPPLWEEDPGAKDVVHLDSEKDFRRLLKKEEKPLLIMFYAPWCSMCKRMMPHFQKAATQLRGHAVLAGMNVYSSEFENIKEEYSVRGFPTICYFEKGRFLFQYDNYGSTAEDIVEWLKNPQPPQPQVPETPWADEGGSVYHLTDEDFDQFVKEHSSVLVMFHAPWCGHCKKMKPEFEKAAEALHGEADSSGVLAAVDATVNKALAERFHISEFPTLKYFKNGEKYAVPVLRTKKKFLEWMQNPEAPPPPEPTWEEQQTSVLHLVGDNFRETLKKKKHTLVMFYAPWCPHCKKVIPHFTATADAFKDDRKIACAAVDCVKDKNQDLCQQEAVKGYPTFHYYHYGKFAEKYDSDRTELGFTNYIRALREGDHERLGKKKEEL
UniProt P11177, whole entry, looked up: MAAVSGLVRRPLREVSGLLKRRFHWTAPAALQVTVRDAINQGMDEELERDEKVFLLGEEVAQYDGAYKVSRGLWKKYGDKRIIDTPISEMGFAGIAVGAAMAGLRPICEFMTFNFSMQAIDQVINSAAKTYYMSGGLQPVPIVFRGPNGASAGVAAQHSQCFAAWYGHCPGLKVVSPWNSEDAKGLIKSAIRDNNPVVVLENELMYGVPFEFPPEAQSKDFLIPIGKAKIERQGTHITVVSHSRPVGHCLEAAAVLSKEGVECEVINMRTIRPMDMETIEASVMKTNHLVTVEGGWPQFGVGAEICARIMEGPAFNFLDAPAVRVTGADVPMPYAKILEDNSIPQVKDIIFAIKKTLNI

What was measured:
Experiment in all cases: log2 fold change, soluble protein after heating vs DMSO (PISA); higher = thermal stabilisation; K562 cells, 10 uM, 30 min; active = over 0.2 and 3.5 SD of the protein, either way, in both replicates (recomputed)
[1] = compound: NC(=O)Nc1cc(-c2cccc(F)c2)sc1C(=O)N[C@H]1CCCNC1
Method in brief: (§1)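 Soluble protein was defined as the supernatant after 21,000xg for 90 min. It came from K562 cells at 2×10^6 cells/mL given 10 μM compound for 30 min, heated in aliquots for 3 min across 48°C-58°C, pooled, and extracted in PBS with 0.5% NP-40 at 4°C, and was quantified by TMTpro 16plex LC-MS/MS with equalised channel sums. Thermal stability against control samples, from duplicates, is reported as log2 fold change.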

[2] = compound: NC(=O)c1cnc(N[C@@H]2CCCC[C@@H]2N)nc1Nc1cccc(-n2nccn2)c1
Method in brief: as §1

[3] = compound: NC1(c2ccc(-c3nc4ccn5c(=O)[nH]nc5c4cc3-c3ccccc3)cc2)CCC1
Method in brief: as §1

[4] = compound: NCC(=O)Nc1ccc(-n2nc(C(F)(F)F)cc2-c2ccc3c(ccc4ccccc43)c2)cc1
Method in brief: as §1

entinostat = compound: Nc1ccccc1NC(=O)c1ccc(CNC(=O)OCc2cccnc2)cc1 [entinostat]
Method in brief: as §1

vorinostat = compound: O=C(CCCCCCC(=O)Nc1ccccc1)NO [vorinostat]
Method in brief: as §1

citarinostat = compound: O=C(CCCCCCNC(=O)c1cnc(N(c2ccccc2)c2ccccc2Cl)nc1)NO [citarinostat]
Method in brief: as §1

silmitasertib = compound: O=C(O)c1ccc2c(c1)nc(Nc1cccc(Cl)c1)c1ccncc12 [silmitasertib]
Method in brief: as §1

[5] = compound: O=C1NC(=O)C(c2cnc3ccccn23)=C1c1cn2c3c(cc(F)cc13)CN(C(=O)N1CCCCC1)CC2
Method in brief: as §1

[6] = compound: c1cc(OCCN2CCCCC2)cc(-c2n[nH]c3ccc(-c4nnc[nH]4)cc23)c1
Method in brief: as §1

entospletinib = compound: c1cn2cc(-c3ccc4cn[nH]c4c3)nc(Nc3ccc(N4CCOCC4)cc3)c2n1 [entospletinib]
Method in brief: as §1

Measured: log2 fold change

PEX1 (UniProt O43933)
inactive: [1] -0.015 | [2] 0.009 | [3] -0.011 | [4] -0.018 | entinostat -0.009 | vorinostat 0.03 | citarinostat 0 | silmitasertib 0.021 | [5] -0.067 | [6] -0.061 | entospletinib 0.042

PDRG1 (UniProt Q9NUG6)
inactive: [1] 0.004 | [2] -0.118 | [3] 0.018 | [4] -0.029 | entinostat 0.01 | vorinostat -0.017 | citarinostat -0.014 | silmitasertib 0.011 | [5] 0.018 | [6] -0.072 | entospletinib -0.032

PARD6B (UniProt Q9BYG5)
inactive: [1] -0.043 | [2] -0.176 | [3] -0.094 | [4] 0.021 | entinostat 0.138 | vorinostat -0.027 | citarinostat -0.083 | silmitasertib 0.077 | [5] -0.087 | [6] -0.136 | entospletinib 0.073

PCCA (UniProt P05165)
inactive: [1] 0.002 | [2] -0.066 | [3] -0.067 | [4] -0.022 | entinostat -0.004 | vorinostat 0.045 | citarinostat -0.011 | silmitasertib -0.051 | [5] -0.042 | [6] -0.062 | entospletinib 0.025

PCSK9 (UniProt Q8NBP7)
inactive: [1] -0.029 | [2] 0.004 | [3] -0.001 | [4] 0.323 | entinostat -0.044 | vorinostat 0.006 | citarinostat 0.01 | silmitasertib 0.032 | [5] 0.029 | [6] -0.061 | entospletinib -0.137

PAGE5 (UniProt Q96GU1)
inactive: [1] 0.074 | [2] 0.342 | [3] 0.045 | [4] 0.125 | entinostat 0.064 | vorinostat -0.173 | citarinostat 0.048 | silmitasertib -0.049 | [5] -0.228 | [6] -0.006 | entospletinib 0.059

PAICS (UniProt P22234)
inactive: [1] -0.003 | [2] 0.025 | [3] 0.064 | [4] -0.008 | entinostat -0.013 | vorinostat -0.029 | citarinostat -0.085 | silmitasertib -0.044 | [5] -0.031 | [6] 0.012 | entospletinib 0.045

PCBD1 (UniProt P61457)
inactive: [1] -0.062 | [2] -0.099 | [3] 0.015 | [4] 0.006 | entinostat 0.002 | vorinostat -0.028 | citarinostat 0.041 | silmitasertib 0.025 | [5] -0.016 | [6] -0.053 | entospletinib 0.04

PAXX (UniProt Q9BUH6)
inactive: [1] -0.029 | [2] 0.037 | [3] -0.003 | [4] 0.006 | entinostat 0.003 | vorinostat -0.005 | citarinostat -0.003 | silmitasertib -0.017 | [5] -0.054 | [6] 0.018 | entospletinib 0.015

PAK2 (UniProt Q13177)
inactive: [1] -0.008 | [2] -0.064 | [3] 0.005 | [4] -0.004 | entinostat -0.019 | vorinostat -0.011 | citarinostat 0.025 | silmitasertib -0.001 | [5] -0.041 | [6] -0.019 | entospletinib 0.009

PAGE2 (UniProt Q7Z2X7)
inactive: [1] -0.008 | [2] 0.044 | [3] 0.038 | [4] 0.063 | entinostat 0.09 | vorinostat -0.095 | citarinostat 0 | silmitasertib 0.042 | [5] -0.124 | [6] -0.021 | entospletinib 0.05

PANK1 (UniProt Q8TE04)
inactive: [1] -0.065 | [2] -0.125 | [3] -0.06 | [4] -0.034 | entinostat 0.001 | vorinostat 0.039 | citarinostat 0.151 | silmitasertib -0.014 | [5] -0.034 | [6] -0.188 | entospletinib -0.12

PAPSS1 (UniProt O43252)
inactive: [1] -0.005 | [2] -0.05 | [3] -0.086 | [4] -0.042 | entinostat -0.009 | vorinostat 0.025 | citarinostat 0.023 | silmitasertib -0.015 | [5] -0.037 | [6] -0.027 | entospletinib 0.015

PEBP1 (UniProt P30086)
inactive: [1] 0.031 | [2] 0.027 | [3] 0.103 | [4] 0.027 | entinostat -0.028 | vorinostat -0.023 | citarinostat 0.026 | silmitasertib -0.04 | [5] 0.01 | [6] -0.008 | entospletinib 0.008

6 neighbouring records already listed, for reference:
PAGE5 (UniProt Q96GU1)
inactive: [1] 0.074 | [2] 0.342 | [3] 0.045 | [4] 0.125 | entinostat 0.064 | vorinostat -0.173 | citarinostat 0.048 | silmitasertib -0.049 | [5] -0.228 | [6] -0.006 | entospletinib 0.059

PAICS (UniProt P22234)
inactive: [1] -0.003 | [2] 0.025 | [3] 0.064 | [4] -0.008 | entinostat -0.013 | vorinostat -0.029 | citarinostat -0.085 | silmitasertib -0.044 | [5] -0.031 | [6] 0.012 | entospletinib 0.045

PCBD1 (UniProt P61457)
inactive: [1] -0.062 | [2] -0.099 | [3] 0.015 | [4] 0.006 | entinostat 0.002 | vorinostat -0.028 | citarinostat 0.041 | silmitasertib 0.025 | [5] -0.016 | [6] -0.053 | entospletinib 0.04

PAXX (UniProt Q9BUH6)
inactive: [1] -0.029 | [2] 0.037 | [3] -0.003 | [4] 0.006 | entinostat 0.003 | vorinostat -0.005 | citarinostat -0.003 | silmitasertib -0.017 | [5] -0.054 | [6] 0.018 | entospletinib 0.015

PAK2 (UniProt Q13177)
inactive: [1] -0.008 | [2] -0.064 | [3] 0.005 | [4] -0.004 | entinostat -0.019 | vorinostat -0.011 | citarinostat 0.025 | silmitasertib -0.001 | [5] -0.041 | [6] -0.019 | entospletinib 0.009

PAGE2 (UniProt Q7Z2X7)
inactive: [1] -0.008 | [2] 0.044 | [3] 0.038 | [4] 0.063 | entinostat 0.09 | vorinostat -0.095 | citarinostat 0 | silmitasertib 0.042 | [5] -0.124 | [6] -0.021 | entospletinib 0.05

(next part)

PDLIM4 (UniProt P50479)
inactive: [1] 0.045 | [2] -0.09 | [3] 0.019 | [4] -0.034 | entinostat -0.03 | vorinostat -0.023 | citarinostat 0.051 | silmitasertib -0.016 | [5] -0.073 | [6] -0.013 | entospletinib -0.036

PANX1 (UniProt Q96RD7)
inactive: [1] 0.051 | [2] 0.011 | [3] 0 | [4] 0.024 | entinostat 0.022 | vorinostat -0.01 | citarinostat 0.031 | silmitasertib -0.012 | [5] 0.008 | [6] -0.088 | entospletinib 0.006

PARS2 (UniProt Q7L3T8)
inactive: [1] 0.079 | [2] -0.034 | [3] 0.015 | [4] 0.058 | entinostat -0.025 | vorinostat -0.002 | citarinostat 0.004 | silmitasertib 0.033 | [5] 0.093 | [6] -0.037 | entospletinib 0.05

PAK1IP1 (UniProt Q9NWT1)
inactive: [1] 0.072 | [2] 0.078 | [3] 0.255 | [4] 0.153 | entinostat -0.063 | vorinostat -0.006 | citarinostat -0.119 | silmitasertib 0.243 | [5] 0.263 | [6] -0.215 | entospletinib 0.101

PDCD10 (UniProt Q9BUL8)
inactive: [1] 0.103 | [2] 0.024 | [3] -0.124 | [4] -0.031 | entinostat -0.045 | vorinostat 0.01 | citarinostat 0.045 | silmitasertib 0.015 | [5] -0.053 | [6] -0.014 | entospletinib -0.053

PCYOX1L (UniProt Q8NBM8)
inactive: [1] -0.012 | [2] -0.03 | [3] -0.025 | [4] 0.04 | entinostat -0.049 | vorinostat -0.034 | citarinostat 0.036 | silmitasertib -0.005 | [5] 0.037 | [6] -0.011 | entospletinib 0.008

PARVB (UniProt Q9HBI1)
inactive: [1] -0.017 | [2] -0.06 | [3] -0.093 | [4] -0.039 | entinostat 0.011 | vorinostat 0.096 | citarinostat 0.035 | silmitasertib -0.022 | [5] -0.022 | [6] -0.038 | entospletinib 0.018

PARK7 (UniProt Q99497)
inactive: [1] 0.251 | [2] 0.074 | [3] -0.042 | [4] 0.244 | entinostat 0.112 | vorinostat 0.041 | citarinostat 0.165 | silmitasertib -0.098 | [5] 0.031 | [6] 0.07 | entospletinib -0.063

PDCL (UniProt Q13371)
inactive: [1] -0.082 | [2] -0.066 | [3] -0.217 | [4] -0.016 | entinostat 0.028 | vorinostat 0.051 | citarinostat 0.122 | silmitasertib -0.009 | [5] 0.02 | [6] 0.044 | entospletinib -0.016

PDIA5 (UniProt Q14554)
inactive: [1] 0.014 | [2] 0.052 | [3] -0.039 | [4] 0.065 | entinostat 0.007 | vorinostat -0.015 | citarinostat 0.039 | silmitasertib 0.021 | [5] 0.003 | [6] -0.061 | entospletinib -0.008

PDHB (UniProt P11177)
inactive: [1] -0.024 | [2] -0.009 | [3] -0.061 | [4] 0.061 | entinostat -0.003 | vorinostat -0.01 | citarinostat -0.011 | silmitasertib -0.022 | [5] 0.132 | [6] -0.066 | entospletinib 0.112

PACSIN2 (UniProt Q9UNF0)
inactive: [1] -0.054 | [2] -0.137 | [3] -0.139 | [4] -0.05 | entinostat 0.106 | vorinostat 0.127 | citarinostat 0.06 | silmitasertib -0.014 | [5] -0.015 | [6] -0.059 | entospletinib -0.01

PCMT1 isoform 2 (UniProt P22061)
inactive: [1] -0.019 | [2] -0.052 | [3] -0.043 | [4] -0.022 | entinostat 0.031 | vorinostat -0.035 | citarinostat 0.026 | silmitasertib -0.002 | [5] -0.018 | [6] 0.039 | entospletinib 0.057
